{"source": "PubChem BioAssay AID1259415", "about": "(National Center for Advancing Translational Sciences (NCATS), 2018)", "note": "“And” between values parts separate entries of the source, which are not always exact repeats. Identical values can stand only once. Among all 410,000 compounds or so, about 18,000 (4.4%) were called active. This list was built around the results that the source calls inconclusive (neither active nor inactive); the mix of calls is not that of the screen. Cut-off read from the data, not from the text of the source: active = activity change below about -60%; inconclusive = no clear call, values can overlap the other calls; inactive = above about -39%."}
{"assay": "qHTS Assay for inhibitors of the human cytomegalovirus (HCMV); note: % is set by controls: 0 for no effect and ±100 for the full control effect", "conditions": "HFF cells, HCMV-luciferase reporter, 72 h; at 57.5 µM; active compounds read low", "summary_of_the_method": "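Screen run at 2 compound doses on HFFs infected with reporter HCMV, MOI 1 PFU/cell. Luciferase activity from cell lysates at 72 h post infection gave inhibition relative to buffer-only and Salinomycin wells.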"}
{"compound": "Cc1ccc(C2(C)NC(=O)N(CC(=O)NNC(=O)c3ccccc3F)C2=O)cc1", "note": "(stereo not given)", "activity change, negative = inhibition": "inactive: 2.18%"}
{"compound": "CC/C(=C\\c1oc2cc3ccccc3cc2[n+]1CC)Nc1ccccc1", "activity change, negative = inhibition": "inconclusive: -49.9%"}
{"compound": "Cc1ccc(NS(=O)(=O)c2ccc(NC(=O)C3CC3)cc2)c(C)c1", "activity change, negative = inhibition": "inconclusive: -59.3%"}
{"compound": "COc1ccc2c(c1)CCc1c(C(=O)N3CC4(C)CC3CC(C)(C)C4)noc1-2", "note": "(stereo not given)", "activity change, negative = inhibition": "inconclusive: -45.8%"}
{"compound": "CCC(=O)c1ccc(N2CCCC2)c(F)c1", "activity change, negative = inhibition": "inactive: 22.6%"}
{"compound": "Cc1ccc(-n2ncc3c(NCCCN4CCOCC4)ncnc32)cc1C", "activity change, negative = inhibition": "inconclusive: -41.8%"}
{"compound": "O=C(Nc1ccc([N+](=O)[O-])cc1NC(=O)c1ccccc1)c1ccccc1", "activity change, negative = inhibition": "inactive: -15.1%"}
{"compound": "CSCCC(NC(=O)c1ccc(Cl)cc1Cl)C(=O)NCC(c1cccs1)N(C)C", "note": "(stereo not given)", "activity change, negative = inhibition": "inconclusive: -45.3%"}
{"compound": "CC(NC(C)(C)C)C(=O)c1cccc(Cl)c1", "note": "(stereo not given)", "activity change, negative = inhibition": "inconclusive: -41.6% and inconclusive: -43.3%"}
{"compound": "CCOC(=O)C1=C(SCC(=O)Nc2ccccc2)NC(=O)C(C#N)C12CCCCC2", "note": "(stereo not given)", "activity change, negative = inhibition": "inconclusive: -46.7%"}
{"compound": "Cc1ccc(S(=O)(=O)N(C)CC(=O)NNC(=O)CCC(=O)c2ccc(F)cc2)cc1", "activity change, negative = inhibition": "inconclusive: -40.5%"}
{"compound": "Cc1cc(C)c2nc(N(CCCN(C)C)C(=O)c3ccc(S(=O)(=O)N4CCCCCC4)cc3)sc2c1", "activity change, negative = inhibition": "inconclusive: -51.6%"}
{"compound": "COc1ccccc1CNC(=O)CCc1c(C)c2cc3c(C)c(C)oc3cc2oc1=O", "activity change, negative = inhibition": "inconclusive: -59.5%"}
{"compound": "CC(=O)c1cccc(N(CC(=O)Nc2ccc(S(=O)(=O)N3CCCC3)cc2)S(C)(=O)=O)c1", "activity change, negative = inhibition": "inconclusive: -59.7%"}
{"compound": "COc1cccc(NS(=O)(=O)c2c(C)n(C)c(=O)n(C)c2=O)c1", "activity change, negative = inhibition": "active: -69.9%"}
{"compound": "Cc1cc(NC(=O)CSc2nnc(-c3ccccc3)c(-c3ccccc3)n2)no1", "activity change, negative = inhibition": "active: -62.1%"}
{"compound": "CC(=O)NC(NC(C)=O)c1ccc(N(C)C)cc1", "activity change, negative = inhibition": "inactive: -28.2%"}
{"compound": "Cc1ccccc1OCCN(C#N)c1nc(N(C)C)nc(N(C)C)n1", "activity change, negative = inhibition": "inactive: -34.1%"}
{"compound": "CN(C)CCCNC(=S)NCC(c1ccc(Cl)cc1Cl)c1c[nH]c2ccccc12", "note": "(stereo not given)", "activity change, negative = inhibition": "inconclusive: -55.5%"}
{"compound": "Cc1ccc(C(C)C)c(OCc2ccc(C(=O)N/N=C/c3ccc(O)cc3O)cc2)c1", "activity change, negative = inhibition": "active: -96.7%"}
{"compound": "CC1(C)CC(=O)CC(=O)/C1=N\\Nc1c(Cl)cc(Cl)cc1Cl", "activity change, negative = inhibition": "inconclusive: -40.9%"}
{"compound": "Cc1cc(C)n(-c2nc(C)c(C)c(=O)n2CC(=O)Nc2ccc([N+](=O)[O-])cc2)n1", "activity change, negative = inhibition": "inactive: 65.3%"}
{"compound": "C=C1C(=O)O[C@@H]2[C@H]1[C@@H](OC(=O)/C(C)=C/C)C/C(C)=C\\C(=O)/C=C(\\C)[C@@H]2O", "activity change, negative = inhibition": "active: -98.5%"}
{"compound": "O=[N+]([O-])c1cc2c(cc1CN1CCN(c3ccc(F)cc3)CC1)OCO2", "activity change, negative = inhibition": "inconclusive: -59.6%"}
{"compound": "Cc1ccnc(SCc2cc(=O)c(OC(=O)c3ccc(Cl)c([N+](=O)[O-])c3)co2)n1", "activity change, negative = inhibition": "inconclusive: -47.1%"}
{"compound": "COc1ccc(C(=O)/C=C/c2cn(CC(O)CN3CCc4ccccc43)c3ccccc23)cc1OC", "note": "(stereo not given)", "activity change, negative = inhibition": "active: -63.7%"}
{"compound": "CCOC(=O)C1=C(O)/C(=C\\c2sccc2C)N=C1C", "activity change, negative = inhibition": "inconclusive: -56.6%"}
{"compound": "O=C(CN1CCN(c2ccc(O)cc2)CC1)NC(=O)NCc1ccco1", "activity change, negative = inhibition": "inconclusive: -49.4%"}
{"compound": "Cn1c(=O)c2c(nc(Br)n2C/C=N/NC(N)=S)n(C)c1=O", "activity change, negative = inhibition": "active: -84%"}
{"compound": "CC(=O)c1cn(CC(=O)Nc2cccc(C)c2C)c2ccccc12", "activity change, negative = inhibition": "active: -69.5%"}
{"compound": "COc1ccc(S(=O)(=O)N2CCC(C(=O)Nc3ccccc3C)CC2)c2cccnc12", "activity change, negative = inhibition": "inconclusive: -40.6%"}
{"compound": "Cc1oc2c(CN3CCCC3)c(O)ccc2c(=O)c1-c1ccc(Br)cc1", "activity change, negative = inhibition": "inactive: -4.05%"}
{"compound": "COC(=O)CCC(=O)NC(=S)Nc1sc(C)c(C)c1C(N)=O", "activity change, negative = inhibition": "inconclusive: -50.2%"}
{"compound": "Cc1ccc(-n2c(SCC(=O)NCc3ccco3)nc3c(sc4ccccc43)c2=O)cc1", "activity change, negative = inhibition": "inconclusive: -41.4%"}
{"compound": "Cc1cn([C@H]2C[C@H](O)[C@@H](CCC(=O)NCC(c3ccccc3)c3ccccc3)O2)c(=O)[nH]c1=O", "activity change, negative = inhibition": "inactive: 2.29%"}
{"compound": "COc1ccccc1N/C=C(\\C#N)c1nc2ccccc2[nH]1", "activity change, negative = inhibition": "inactive: 87.9%"}
{"compound": "Clc1ccc(-c2ccc(C=Nc3ccc(N4CCOCC4)cc3)o2)cc1", "activity change, negative = inhibition": "active: -61.8%"}
{"compound": "Nc1ccc(C(=O)N2CCN(S(=O)(=O)c3ccc(Br)cc3)CC2)cc1[N+](=O)[O-]", "activity change, negative = inhibition": "active: -60.9%"}
{"compound": "CC1(C)C2CCC1(C)C(OCC[N+](C)(C)CC(=O)OC1CCCCC1)C2", "note": "(stereo not given)", "activity change, negative = inhibition": "inconclusive: -59.5%"}
{"compound": "CCOC(=O)C1CCN(S(=O)(=O)c2ccc(C(C)(C)C)cc2)CC1", "activity change, negative = inhibition": "inconclusive: -49.1%"}
{"compound": "O=C(CSc1oc(-c2ccccc2)nc1S(=O)(=O)c1ccccc1)NCC1CCCO1", "note": "(stereo not given)", "activity change, negative = inhibition": "inactive: -9.33%"}
{"compound": "C#CCOCCOCCOCCNc1nc(N2CCN(C(=O)[C@H]([C@@H](C)O)n3cc(CCCCN)nn3)CC2)nc(N2CCN(C(=O)[C@H](CCCCN)n3cc(CCC(=O)O)nn3)CC2)n1", "activity change, negative = inhibition": "inactive: 34%"}
{"compound": "C=CC[N@@+]12CC[C@]34c5ccccc5N5/C=C6\\C7N(/C=C(\\C53)[C@@H](C[C@@H]41)/C(=C/CO)C2)c1ccccc1[C@@]71CC[N@@+]2(CC=C)C/C(=C\\CO)[C@@H]6C[C@@H]12", "note": "(stereo not given in full)", "activity change, negative = inhibition": "inconclusive: -44.5%"}
{"compound": "COc1cccc(N/C(SCc2ccccc2F)=C(/C#N)C(=O)NCc2cccs2)c1", "activity change, negative = inhibition": "inconclusive: -41.2%"}
{"compound": "CCNS(=O)(=O)c1ccc(NC(=O)CC(C)c2ccccc2)cc1", "note": "(stereo not given)", "activity change, negative = inhibition": "inconclusive: -48.6%"}
{"compound": "COc1ccc(CN2C(=O)CC(=O)NC2=O)cc1", "activity change, negative = inhibition": "inactive: 25.8%"}
{"compound": "CC1CCCC(NC(=O)CNC(=S)N(Cc2ccccc2)Cc2cccs2)C1C", "note": "(stereo not given)", "activity change, negative = inhibition": "inconclusive: -54.7%"}
{"compound": "COc1ccc(CC(=O)Nc2sc3c(c2C#N)CC(C)(C)NC3(C)C)cc1OC", "activity change, negative = inhibition": "inactive: -29%"}
{"compound": "Cc1ccccc1OCCn1cc(C(=O)C(=O)N2CCOCC2)c2ccccc21", "activity change, negative = inhibition": "inconclusive: -51.1%"}
{"compound": "CCOC1=C2CN(S(=O)(=O)c3ccc(C)cc3)[C@@H](c3cccs3)C[C@H]2[C@H]2C(=O)N(c3ccccc3)C(=O)[C@H]2C1", "activity change, negative = inhibition": "inactive: -12.7%"}
